Record: PubChem BioAssay AID504764 (Drosophila RNAi Screening Center, 2011)
Test: 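Knock-downs that raise or lower a Notch target reporter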 (primary screen). Cell system: Drosophila Kc167 cells. Reagents: long dsRNA against Drosophila genes. Time to read-out: about 5 days (4 days dsRNA, then 24 h after transfection). Challenge: transfection of constitutively active membrane-tethered Notch lacking the extracellular domain, read 24 h later. Detection: 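Light from a Notch-responsive E(spl)m3 luciferase reporter under active Notch, with control-promoter and no-Notch reporter wells to normalise; raw counts from paired wells a and b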. Direction: induced reporter light, run 1, well a and induced reporter light, run 1, well b: higher = more light from the Notch target reporter with active Notch; control promoter light, run 1, well a and control promoter light, run 1, well b: higher = more light from the viral control promoter (cell number, transfection, viability); uninduced reporter light, run 1, well a: higher = more light from the Notch target reporter without active Notch. Hit rule: 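Wells with low control signal or poorly matching duplicates excluded; duplicates averaged; per source plate, z beyond ±2 for induced/control log2 ratio or beyond ±1.8 for induced/uninduced marks a hit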. Meaning of the calls: active = modifier hit (raised or lowered Notch signal); inactive = not a hit.
The screen tested about 22,000 reagents; below is a random part of those that have a named target and a result. In the full data, 403 (1.9%) were called active. 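Unnormalised raw counts per well; ratio z-scores behind the hit calls and whether each hit raises or lowers signal are not deposited.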 Names joined by + are all predicted targets of the reagent. Not stated in the record: the amount of reagent.

no.	target	dsRNA	induced reporter light, run 1, well a	induced reporter light, run 1, well b	control promoter light, run 1, well a	control promoter light, run 1, well b	uninduced reporter light, run 1, well a	Call
1	CG31882	DRSC01084	1.38e5	1.49e5	1.36e5	1.56e5	11455	inactive
2	opa	DRSC12384	1.25e5	94535	1.47e5	1.30e5	8182	inactive
3	opa	DRSC22563						inactive
4	Cdk8	DRSC11113	87485	86540	74590	68370	11400	active
5	knk	DRSC15993	68025	64850	65745	43505	3200	inactive
6	mRpL55	DRSC14764	1.43e5	1.28e5	1.90e5	1.91e5	11205	inactive
7	E(spl)mdelta-HLH	DRSC16698	1.73e5	1.49e5	1.97e5	1.97e5	14880	inactive
8	CG8301	DRSC16405	75205	65390	48100	42850	7040	inactive
9	pod1	DRSC18362	1.46e5	1.80e5	1.20e5	1.12e5	13575	inactive
10	Eo	DRSC20187	1.09e5	96170	1.15e5	98155	11050	inactive
11	CG4375	DRSC00653	1.24e5	99785	97155	76360	8050	inactive
12	Dyro	DRSC10598	56050	45800	36030	46990	5250	inactive
13	CG2839	DRSC00544	99250	1.08e5	92685	45135	9305	inactive
14	CG12607	DRSC08287	1.64e5	3.16e5	2.84e5	2.82e5	8085	inactive
15	Nagk	DRSC15994	1.35e5	1.55e5	1.24e5	1.03e5	9895	inactive
16	CG11035	DRSC14287	1.23e5	1.18e5	80300	77120	9620	inactive
17	KP78a + KP78b	DRSC16721	66850	77810	61820	44250	6635	inactive
18	KP78a + KP78b	DRSC16722	58180	67445	67000	45635	7455	inactive
19	Mitf	DRSC17212	72530	75145	96440	1.09e5	5535	inactive
20	Mitf	DRSC21056	65340	58450	80980	88590	6805	inactive
21	CG14654 (retired record)	DRSC12240	1.37e5	1.06e5	1.27e5	1.15e5	9440	inactive
22	FLASH	DRSC06872	2.29e5	2.08e5	3.44e5	3.53e5	18575	inactive

Next part (2 carried over from the part before).
no.	target	dsRNA	induced reporter light, run 1, well a	induced reporter light, run 1, well b	control promoter light, run 1, well a	control promoter light, run 1, well b	uninduced reporter light, run 1, well a	Call
21	CG14654 (retired record)	DRSC12240	1.37e5	1.06e5	1.27e5	1.15e5	9440	inactive
22	FLASH	DRSC06872	2.29e5	2.08e5	3.44e5	3.53e5	18575	inactive
23	Pfdn6	DRSC10915	57280	39815	34035	31015	3810	inactive
24	CG17190	DRSC15184	1.84e5	1.79e5	2.18e5	2.17e5	11400	inactive
25	CG8728	DRSC07251	1.49e5	1.71e5	1.84e5	1.81e5	13555	inactive
26	ppk23	DRSC20110	40375	50155	50590	57120	7350	inactive
27	lncRNA:CR32661	DRSC19794	1.39e5	1.56e5	2.46e5	2.70e5	10280	inactive
28	CG3527	DRSC18307	1.44e5	1.22e5	1.95e5	2.13e5	11450	inactive
29	CG12551 (retired record)	DRSC04857	1.44e5	1.25e5	1.54e5	1.61e5	9220	inactive
30	CG12551 (retired record)	DRSC04864	1.57e5	1.17e5	1.46e5	1.44e5	10660	inactive
31	CG13896	DRSC08366	1.58e5	1.46e5	2.49e5	2.05e5	10088	inactive
32	CG12811	DRSC14549	92330	93920	97945	81590	4540	inactive
33	EMC4	DRSC11638	1.09e5	92660	75435	65600	5485	inactive
34	CG32221	DRSC09638	2.34e5	3.08e5	3.80e5	3.40e5	23570	inactive
